Laboratory results reported in paper PMC11208920, “The binding of LARP6 and DNAAF6 in biomolecular condensates influences ciliogenesis of multiciliated cells”.

How the values were obtained:
[1] = biological target: Xenopus LARP6-2HA (Xenopus laevis); test: co-IP; protein extracts of Xenopus embryos (stage 10 or stage 20) expressing tagged proteins; 0.5% Triton X lysate buffer, antibody 1 h at room temperature; xLARP6-2HA immunoprecipitated, Flag-tagged DNAAF6 forms analysed in the precipitate
[2] = biological target: HA-tagged La motif (LAM) of human LARP6 (human); test: co-IP; HEK293T cells transfected with tagged proteins; HA-tagged LARP6 forms immunoprecipitated from cleared lysate (0.5% NP-40 lysis buffer, 4 °C, protein A/G-agarose), Flag-tagged DNAAF6 analysed in the precipitate

| Binder | binding [1] | binding [2] |
| --- | --- | --- |
| Flag-tagged human DNAAF6 WT (expressed in Xenopus embryos) (protein, UniProt Q9NQM4 1-214) MESENMDSENMKTENMESQNVDFESVSSVTALEALSKLLNPEEEDDSDYGQTNGLSTIGAMGPGNIGPPQIEELKVIPETSEENNEDIWNSEEIPEGAEYDDMWDVREIPEYEIIFRQQVGTEDIFLGLSKKDSSTGCCSELVAKIKLPNTNPSDIQIDIQETILDLRTPQKKLLITLPELVECTSAKAFYIPETETLEITMTMKRELDIANFF | binds | – |
| Flag-tagged human DNAAF6 Q171∗ (expressed in Xenopus embryos) (domain or fragment, UniProt Q9NQM4 1-170) MESENMDSENMKTENMESQNVDFESVSSVTALEALSKLLNPEEEDDSDYGQTNGLSTIGAMGPGNIGPPQIEELKVIPETSEENNEDIWNSEEIPEGAEYDDMWDVREIPEYEIIFRQQVGTEDIFLGLSKKDSSTGCCSELVAKIKLPNTNPSDIQIDIQETILDLRTP | binds | – |
| Flag-tagged human DNAAF6 (expressed in HEK293T cells) (protein, UniProt Q9NQM4 1-214) MESENMDSENMKTENMESQNVDFESVSSVTALEALSKLLNPEEEDDSDYGQTNGLSTIGAMGPGNIGPPQIEELKVIPETSEENNEDIWNSEEIPEGAEYDDMWDVREIPEYEIIFRQQVGTEDIFLGLSKKDSSTGCCSELVAKIKLPNTNPSDIQIDIQETILDLRTPQKKLLITLPELVECTSAKAFYIPETETLEITMTMKRELDIANFF | – | binds |

Results are given in words; binding and its absence hold for the method and conditions named. In cells and extracts the contact can be indirect. Binding can be weak; no strength is given. Tags and fused reporters may be left off the sequences shown.
